The values that follow come from patent publication US7732444B2, “2-(amino-substituted)-4-aryl pyrimidines and related compounds useful for treating inflammatory diseases” (Millennium Pharmaceuticals, Inc., priority 2004, dated 2010).

Protein sequences, listed by entry. Tags and fused reporters are not part of them. Lines headed by an entry give the natural chain unless they say otherwise; changes in a name come on top.
UniProt Q04759: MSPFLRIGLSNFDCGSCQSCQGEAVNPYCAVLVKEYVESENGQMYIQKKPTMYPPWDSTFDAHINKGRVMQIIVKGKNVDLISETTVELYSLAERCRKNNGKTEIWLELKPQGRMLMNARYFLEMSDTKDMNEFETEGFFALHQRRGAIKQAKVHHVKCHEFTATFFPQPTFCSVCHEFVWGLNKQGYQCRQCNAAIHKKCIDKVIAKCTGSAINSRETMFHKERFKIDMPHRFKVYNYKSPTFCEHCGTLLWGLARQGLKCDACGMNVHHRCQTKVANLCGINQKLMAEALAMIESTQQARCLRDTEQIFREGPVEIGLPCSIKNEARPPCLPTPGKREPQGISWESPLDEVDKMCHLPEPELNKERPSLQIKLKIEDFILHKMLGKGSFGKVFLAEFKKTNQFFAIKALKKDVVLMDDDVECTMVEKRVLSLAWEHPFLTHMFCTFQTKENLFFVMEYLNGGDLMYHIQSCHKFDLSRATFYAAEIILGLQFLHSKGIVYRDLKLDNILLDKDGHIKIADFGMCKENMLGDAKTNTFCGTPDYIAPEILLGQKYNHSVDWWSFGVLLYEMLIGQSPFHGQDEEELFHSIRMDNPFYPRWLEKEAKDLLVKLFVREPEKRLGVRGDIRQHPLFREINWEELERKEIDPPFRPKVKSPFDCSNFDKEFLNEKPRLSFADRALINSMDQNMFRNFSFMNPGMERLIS

In the assay the target is T1, full length PKC θ (Homo sapiens, UniProt Q04759).
T1 construct: 15 μL of full length PKC θ (Panvera Corporation); purchased Panvera Corporation
As to the kind of experiment: PKC-theta isoform inhibition assay (HTRF, 384 well plate). Particulars: full length PKC θ at 27 pM, peptide substrate 300 nM + 3 μM ATP, HTRF readout. It counts as biochemical. Here is the method: An in vitro assay for detecting and measuring inhibition activity against PKC-theta isoform by candidate pharmacological agents is useful for evaluating and selecting a compound that modulates PKC-theta isoform. An IC50 value can be calculated after running the assay. Following is an assay protocol for measuring PKC-theta isoform.
Per well of a 384 well plate, compounds at various concentrations in 5 μL of 20% DMSO were pre-incubated for about 30 minutes at about 25° C. with 15 μL of full length PKC θ (Panvera Corporation) at 27 pM in an assay buffer (25 mM Hepes, pH 7.5, 5 mM DTT, 10 mM MgCl2, 10 mM 2-glycerophosphate, 12.5 μg/mL 1,2-dioleoyl-rac-glycerol, 10 μg/mL L-α-phosphatidyl-L-serine, 0.1% Bovine Serum Albumin). 10 μL of peptide substrate (biotin-(CH2)6— RFARKGSLRQKNV —CONH2) at 300 nM+3 μM ATP were added to each well and incubated for about 1 hour before quenching with 10 μL of 250 mM EDTA. 40 μL of detection buffer (25 mM Hepes, pH 7.5, 100 mM KF, 0.1% Bovine Serum Albumin, 0.01% Tween20) containing 2 nM anti-phospho antibody 2B9 (MBL International) labeled with europium cryptate (Cis-Bio International) and 0.0064 μg/mL streptavidin-allophycocyanin (Prozyme) was added to each well and incubated for two hours. Signal was then read on a Discovery HTRF (Packard).
(In TR-FRET formats the signal depends on donor and acceptor labels being close together.)

The structures appear in SMILES notation. Some results are limits rather than exact numbers.

The IC50 is the concentration that inhibits the measured activity by half.

For the compound `NCCC(=O)Nc1cccc(-c2ccnc(NCCc3ccc(O)cc3)n2)c1` [Compound 77, 3-Amino-N-(3-{2-[2-(4-hydroxy-phenyl)-ethylamino]-pyrimidin-4-yl}-phenyl)-propionamide], the IC50 is less than 100 nM.
